The results are deposited in PubChem (AID1159506; NCATS, 2015).

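Luminescence from an EWS-FLI1 target-promoter (NR0B1) reporter, set against a CMV-promoter reporter, two days after silencing single genes in TC32 Ewing sarcoma cells.
Each siRNA was applied at 20 nM.
A z-score of the log NR0B1-over-CMV signal, less the median of siRNAs with the same seed; more negative means a stronger specific loss of the NR0B1 reporter.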

The strongest results of the screen are mostly left out here.
Sequences are the guide (antisense) strand, without overhang.

Sequence | gene | seed-corrected z-score
UUAGGAUCAAACUCCAUCU | POLR2G | 0.007731
GCCAUAGUGAGGAUCUUGG | LOC441956 | 0.4193
UGAAAGUUGAGUCCAUACC | OR51I1 | -0.3851
UAAUCAUCAUUUAAUCCGC | ADAMTS18 | -0.5115
UAUCGUUAUUUUAUUGUCA | C7orf34 | 0.6303
AAAGAGACCGCAGAGCUCU | FAM69C | -0.09508
UUCGUGAUCGGUUCCAUCC | JADE3 | -0.234
AGCUUGCCAAGUGAUCUUG | MTFP1 | 0.141
UAUCGAGCUAGGGCAAUAG | FRYL | 0.09007
UGAGUUGCACGUCAAAUCU | RPS15A | 1.774
AUAGGCUUGGGCAUAGUGU | ECE2 | -0.7324
UUCACGUCUAGGUAAAACC | PURG | -0.3177
UCAGUUACAGUUCGGAUUG | NAP1L2 | 2.108
UUGCAUUCAAACCACCUCC | TIGD3 | -0.104
UUUCGGAUGACACGUGUCC | IQGAP2 | -0.1365
AAUCAAGUAAAGAAUUGUC | FGF13 | -0.2715
UACCCGUUUAUUGUGCUUC | HYOU1 | -0.1475
UUUCCGGCAGGUUUAGGGC | EVX1 | -0.1005
UAUUGUUCUCAGGCCGAUG | ALPK2 | -0.2629
UGUUUGGUUAAAUUUGUGC | ARRDC1-AS1 | -0.03027
UCUGUUCCACCUGUAGUGC | CD72 | 0.1725
ACACUAUUCACGUACAGCC | TIAM1 | -0.5234
UGUAGUAGGAGACCCAUCC | SLC40A1 | -0.6223
UCCGUUUUCUGAUUAUACC | ATP11A | 0.741
UCAGGAGCAACAGCCGAAU | RAB44 | 0.5739
UAUGGAAUACCGGCUCUGC | NWD1 | -0.3702
AAUCGUUAUAUUGACAAUG | ADGRV1 | -0.8006
UAUCAUCCAAGUAUGGAUC | PAIP1 | -0.01767
UAUCUAGAAACCGAAAUGC | LOC729770 | -0.03752
UACUCGAGCAGUCAAUUUC | SRPX2 | 0.003947
UAAGAAUACGGUGGUAUUG | NFYA | 0.1575
AUCAUUUCAACUCCUAUGU | NXPE2 | -0.3345
UUGUCAUCCAGGAAAUGCU | CYP2A7 | 0.9528
UCAGUUCCCAGAGAUAGGC | PAGE3 | 0.04026
UCAGUGUCAGCUGUUUUGU | TNFRSF12A | 0.1877
UGCUUGAUUAUUAAUCAUC | TIMM21 | -0.002816
UUUGGAUCCACGAUGUCCA | PRMT8 | 0.08531
AAGGUAAUUACGGUAUAGC | GPR18 | -0.6591
UGAUCUACUACAAUCACAG | SLC19A3 | 1.038
UUGCAGAGCACAAACGAGA | EIF1AD | -0.1005
AAACAUUUCAGAACCACGG | LYG2 | 0.1367
AAAUCUAACUGCAUACUCC | NYNRIN | 0.07049
UUUCGUCUCAGGGAAUACU | CSN1S2AP | 0.571

For reference, 5 entries once more:

Sequence	gene	seed-corrected z-score
UGUAGUAGGAGACCCAUCC	SLC40A1	-0.6223
UGAUCUACUACAAUCACAG	SLC19A3	1.038
AUCAUUUCAACUCCUAUGU	NXPE2	-0.3345
AAGGUAAUUACGGUAUAGC	GPR18	-0.6591
UCUGUUCCACCUGUAGUGC	CD72	0.1725